Results are given in words; binding and its absence hold for the method and conditions named. Binding seen in cells or lysates may run through a third protein. Binding calls can cover weak binding; strength is not graded here.
Legend:
[1] = molecular target: rat RIP1 overexpressed from recombinant adenovirus (Ad-RIP1) (rat); test: co-IP; cultured primary rat neurons; IP with anti-RIP1 antibody, immunoblot for RIP3, MLKL, caspase-8; control, OxyHb, conditioned medium from OxyHb-stimulated microglia, with or without TNF-α inhibitor, Ad-RIP1 or Ad-RIP1-S166A
[2] = molecular target: receptor-interacting protein 1 (RIP1) (rat (endogenous in Sprague-Dawley rat brain tissue and primary neurons)); test: as above
[3] = molecular target: rat RIP1 overexpressed from recombinant adenovirus (Ad-RIP1) (rat); test: co-IP; rat brain tissue lysed in ice-cold RIPA buffer; IP with anti-RIP1 antibody (rabbit IgG as negative control) overnight at 4 °C, Protein A+G Sepharose beads; immunoblot for RIP3, MLKL, caspase-8; Sham and 24 h after ICH; animals also treated with Nec-1, z-VAD, RIP1 siRNA, Ad-GFP or Ad-RIP1
[4] = molecular target: receptor-interacting protein 1 (RIP1) (rat (endogenous in Sprague-Dawley rat brain tissue and primary neurons)); test: as above

Measured: binding

B1: RIP3 (protein, UniProt Q9Z2P5 1-478)
chain: MSSVKLWLNGASSISLVGSEELENLGFVGKGGFGAVFRARHTAWNLDVAVKIVNSKKISREVKAMVNLRHENVLLLLGVTENLEWDYVYGPALVTGFMENGSLSGLLQPSCPRPWPLLCRLLEEVVLGMCYLHSLNPSLLHRDLKPSNVLLDPELHAKLADFGLSTFQGGSQSGSGSGSRDSGGTLAYLAPELLDNDGKASKASDVYSFGVLVWTVLAGREAEVVDKTSLIRGAVCNRQRRPPLTELPPDSPETPGLEGLKELMTHCWSSEPKDRPSFQDCESKTNNVYILVQDKVDAAVSKVKHYLSQYRSSDTKLSARESSQKGTEVDCPRETIVYEMLDRLHLEEPSGSVPERLTSLTERRGKEASFGHATPAGTSSDTLAGTPQIPHTLPSRGTTPRPAFTETPGPDPQRNQGDGRNSNPWYTWNAPNPMTGLQSIVLNNCSEVQIGQHNCMSVQPRTAFPKKEPAQFGRGRGW
binds: all assays above

B2: MLKL (mixed lineage kinase domain-like protein) (protein, UniProt D3ZKP6 1-462)
chain: MDKLGQIIKLGQLIYDQCEKMKYCKRQCRRLRNRVHGLLQPLQRLQAQEKKSLPSDITAALGRFEDVLKEARQQIEKFSQKSNIWKFATVGSDKILFHEVNEKLRDIWEELLLLLQVDQWKSDSEVSQPASWQQEDQQDAEEDGNENMKVILVKLQISMEEIKEALKQCSLKPMQEVPQDFQVKEIPKEDLGYPWTKLKTNKLSTIYRGEYYKSPVTIKVFNNPKAESVGIVRLTFNEEIKTMKKFDSPNILRIFGICIDQTVKPPEFSIVMEYCELGTLRELLDRDKDLTMSVRSLLVLRAARGLYRLHHSGTLHGNISSSSFLVAGGYQVKLAGFELSKTQTSISRATKSTKAERFSSTAYVSPERLQDPFCKYDTKAEIYSFGIVLWEIATGKIPFEGCDSEKIYELVAENKKQEPVGQDCPELLQEIINECRAHEPSNRPSADGRILSLPQMENTRQS
binds: all assays above
